Where cells or extracts were used, other partners may take part. For part of these data: The exact form of at least one protein or probe is not confirmed. For part of these data: No signal at the amounts used counts as a negative.
Tests used:
Test in all cases: EMSA
[1] = test system: VDR-RXRalpha heterodimer (Homo sapiens); details: protein in a lysate after overexpression, protein details: yeast (S. cerevisiae) expressed extracts, label: 32P
[2] = test system: VDR-RXR heterodimer, endogenous (MLA-144 nuclear extract); details: protein in an extract, protein details: 1,25-(OH)2D3-treated OWP cell nuclear extract, label: 32P
[3] = test system: VDR-RXR heterodimer, endogenous (B95-8 nuclear extract); details: protein in an extract, protein details: vitamin D-resistant B95-8 nuclear extract, label: 32P
[4] = results stated identical to opVDRE

Chains of the proteins cited; added tags and fusions are not shown. Chains listed by the source or under a name are the forms on record and can include a tag or linker.
VDR-RXRalpha heterodimer (Homo sapiens), one chain, as listed by the source, chain 2 of 2: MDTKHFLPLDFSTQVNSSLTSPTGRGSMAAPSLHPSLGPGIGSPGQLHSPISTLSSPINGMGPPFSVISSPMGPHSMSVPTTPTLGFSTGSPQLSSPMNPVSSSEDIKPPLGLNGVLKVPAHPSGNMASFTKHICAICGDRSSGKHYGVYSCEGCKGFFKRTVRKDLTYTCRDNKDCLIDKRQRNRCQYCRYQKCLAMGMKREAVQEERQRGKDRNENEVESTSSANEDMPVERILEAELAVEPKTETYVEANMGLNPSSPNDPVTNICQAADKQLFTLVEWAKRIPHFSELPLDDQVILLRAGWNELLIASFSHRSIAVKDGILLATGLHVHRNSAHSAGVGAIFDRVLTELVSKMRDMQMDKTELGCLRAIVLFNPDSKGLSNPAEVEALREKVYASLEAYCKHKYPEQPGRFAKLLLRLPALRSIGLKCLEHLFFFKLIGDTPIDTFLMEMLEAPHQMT
VDR-RXRalpha heterodimer (Homo sapiens), one chain, as listed by the source, chain 1 of 2: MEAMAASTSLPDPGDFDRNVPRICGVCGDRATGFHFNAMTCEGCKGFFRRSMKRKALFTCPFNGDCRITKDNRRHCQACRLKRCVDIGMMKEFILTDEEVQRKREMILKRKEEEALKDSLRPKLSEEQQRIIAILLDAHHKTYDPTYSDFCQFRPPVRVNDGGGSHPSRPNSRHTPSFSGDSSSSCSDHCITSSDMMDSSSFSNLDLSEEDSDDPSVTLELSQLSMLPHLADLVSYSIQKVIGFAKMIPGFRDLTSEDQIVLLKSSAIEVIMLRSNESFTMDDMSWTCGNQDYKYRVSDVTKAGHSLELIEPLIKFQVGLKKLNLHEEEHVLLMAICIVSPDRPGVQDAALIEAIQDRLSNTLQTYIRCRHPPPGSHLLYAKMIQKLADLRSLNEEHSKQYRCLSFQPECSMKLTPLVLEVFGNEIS

Sequence	binding result [1, 4]	binding result [2, 4]	binding result [3, 4]	binding result ([1]; complex inhibited by B95-8 nuclear extract)	binding result ([2]; 1,25-(OH)2D3-treated cells)	binding result ([3]; no VDR-RXR band, with or without 100 nM 1,25-(OH)2D3, inhibitory factor present)
GGGTGAACGGGGGCA (double strand) [human osteocalcin VDRE (ocVDRE)]	binds	binds	no binding	–	–	–
GGTTCACGAGGTTCA (double strand) [mouse osteopontin VDRE (opVDRE)]	–	–	–	binds	binds	no binding
